Results are given in words; binding and its absence hold for the method and conditions named.
Target: VirB7_(XAC2622_51–134) (Xanthomonas citri subsp. citri strain 306)
Experiment: cross-linking; 0.01% (v/v) glutaraldehyde, 20 min, protein at 27 to 720 µM, 16% Tricine SDS-PAGE; both purified

With “VirB7_(XAC2622_51–134) (from UniProt A0AAI7ZGD2 51-134) (domain or fragment)” the binding was “no binding (tested: 720 µM)”.

Reference: PMC3093366, “A Component of the Xanthomonadaceae Type IV Secretion System Combines a VirB7 Motif with a N0 Domain Found in Outer Membrane Transport Proteins” (PLoS Pathogens, 2011)
